For assay [1], the target named is T1, N-terminal GST tagged wild type LKB1 (mouse) (UniProt Q9WTK7).
T1 sequence (looked up): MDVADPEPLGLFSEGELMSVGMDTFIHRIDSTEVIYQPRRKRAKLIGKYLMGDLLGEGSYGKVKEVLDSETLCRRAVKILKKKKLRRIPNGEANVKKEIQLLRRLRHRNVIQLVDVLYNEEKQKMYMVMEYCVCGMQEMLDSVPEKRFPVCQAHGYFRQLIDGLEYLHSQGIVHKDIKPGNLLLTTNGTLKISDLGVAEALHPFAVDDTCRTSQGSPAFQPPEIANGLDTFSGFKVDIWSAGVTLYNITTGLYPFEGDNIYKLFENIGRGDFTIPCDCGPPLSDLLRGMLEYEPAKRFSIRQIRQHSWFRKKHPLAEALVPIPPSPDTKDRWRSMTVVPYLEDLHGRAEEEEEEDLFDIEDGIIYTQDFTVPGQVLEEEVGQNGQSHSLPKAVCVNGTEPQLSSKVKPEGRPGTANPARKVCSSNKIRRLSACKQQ
The experiment in a line: co-expression in 293 cells, glutathione-Sepharose pull-down of GST-LKB1, colloidal blue stained gel.

Amino acid sequences for entries named in this document (tags omitted). A change or cut given only in a name is not applied to a line headed by its entry. Chains listed by the source or under a name are the forms on record and can include a tag or linker. Residues count along the entry.
endogenous rat MO25α (Rat-2 cells; rat liver) (D3ZJ77, form named): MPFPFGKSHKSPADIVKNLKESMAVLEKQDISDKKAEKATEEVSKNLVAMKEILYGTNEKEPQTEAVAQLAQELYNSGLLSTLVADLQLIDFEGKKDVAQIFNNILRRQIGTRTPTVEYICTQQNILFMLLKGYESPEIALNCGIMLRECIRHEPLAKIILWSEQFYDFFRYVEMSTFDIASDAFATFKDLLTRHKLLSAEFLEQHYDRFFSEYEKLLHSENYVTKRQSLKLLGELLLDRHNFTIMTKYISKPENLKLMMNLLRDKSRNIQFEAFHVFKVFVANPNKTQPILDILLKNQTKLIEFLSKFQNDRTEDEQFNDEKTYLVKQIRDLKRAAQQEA
UniProt P08238, residues 2-724: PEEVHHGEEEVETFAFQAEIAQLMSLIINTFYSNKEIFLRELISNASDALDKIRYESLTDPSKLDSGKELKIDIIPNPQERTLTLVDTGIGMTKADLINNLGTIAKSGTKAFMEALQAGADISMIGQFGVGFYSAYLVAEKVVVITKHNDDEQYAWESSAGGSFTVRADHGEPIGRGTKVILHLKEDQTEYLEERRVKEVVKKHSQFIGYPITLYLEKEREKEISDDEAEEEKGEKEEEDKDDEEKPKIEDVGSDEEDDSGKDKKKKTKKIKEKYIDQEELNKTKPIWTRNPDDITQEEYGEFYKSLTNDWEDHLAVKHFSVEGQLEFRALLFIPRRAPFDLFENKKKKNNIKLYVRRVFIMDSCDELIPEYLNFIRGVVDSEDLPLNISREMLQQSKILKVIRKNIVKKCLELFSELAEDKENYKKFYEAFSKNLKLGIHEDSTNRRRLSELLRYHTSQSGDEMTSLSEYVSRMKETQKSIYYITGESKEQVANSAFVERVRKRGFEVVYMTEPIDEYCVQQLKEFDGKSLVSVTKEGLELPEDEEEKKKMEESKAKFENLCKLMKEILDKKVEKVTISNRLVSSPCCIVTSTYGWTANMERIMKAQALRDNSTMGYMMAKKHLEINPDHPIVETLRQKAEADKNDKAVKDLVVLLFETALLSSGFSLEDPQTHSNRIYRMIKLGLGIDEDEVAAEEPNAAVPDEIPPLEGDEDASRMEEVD

Assay [2] addresses T2, endogenous human MO25α (HeLa, 293 cells) (human) (UniProt Q9Y376).
T2 sequence (looked up): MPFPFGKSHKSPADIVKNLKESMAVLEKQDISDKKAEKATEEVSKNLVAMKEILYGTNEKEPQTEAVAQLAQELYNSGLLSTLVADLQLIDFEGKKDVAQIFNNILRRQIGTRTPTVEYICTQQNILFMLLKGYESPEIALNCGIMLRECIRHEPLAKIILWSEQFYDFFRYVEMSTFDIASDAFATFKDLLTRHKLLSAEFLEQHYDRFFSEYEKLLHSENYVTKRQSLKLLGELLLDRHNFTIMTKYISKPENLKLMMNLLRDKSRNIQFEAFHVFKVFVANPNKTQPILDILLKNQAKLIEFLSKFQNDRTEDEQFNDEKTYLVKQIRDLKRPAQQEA
The experiment in a line: co-immunoprecipitation of endogenous proteins with anti-MO25α antibody, 293 cells, immunoblot. For orientation: Immunoblotting shows a protein as a band on a membrane.

Assay [3] concerns the target T3, endogenous LKB1 of 293 / HEK-293T cells (human) (UniProt Q15831).
T3 sequence (looked up): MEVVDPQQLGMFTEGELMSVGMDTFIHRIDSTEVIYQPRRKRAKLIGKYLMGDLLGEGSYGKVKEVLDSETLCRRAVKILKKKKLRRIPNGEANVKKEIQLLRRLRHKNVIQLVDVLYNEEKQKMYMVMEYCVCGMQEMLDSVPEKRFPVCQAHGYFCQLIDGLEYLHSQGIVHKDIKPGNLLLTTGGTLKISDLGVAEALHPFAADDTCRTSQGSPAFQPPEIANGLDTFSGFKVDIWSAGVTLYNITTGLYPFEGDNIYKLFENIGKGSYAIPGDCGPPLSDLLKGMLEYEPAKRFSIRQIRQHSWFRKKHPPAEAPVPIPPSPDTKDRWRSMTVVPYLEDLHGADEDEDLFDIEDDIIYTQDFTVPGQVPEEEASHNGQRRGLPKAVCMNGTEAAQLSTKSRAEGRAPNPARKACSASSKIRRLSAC
The experiment in a line: co-immunoprecipitation with anti-LKB1 antibody, HEK-293T cells.

The target in assay [4] is T3, endogenous LKB1 of 293 / HEK-293T cells (human). The assay is described as follows: co-immunoprecipitation of endogenous proteins with anti-LKB1 antibody, 293 cells, immunoblot.
The target of assay [5] is T4, N-terminal Flag epitope tagged kinase dead LKB1 (D194A) (mouse) (UniProt Q9WTK7).
T4 sequence: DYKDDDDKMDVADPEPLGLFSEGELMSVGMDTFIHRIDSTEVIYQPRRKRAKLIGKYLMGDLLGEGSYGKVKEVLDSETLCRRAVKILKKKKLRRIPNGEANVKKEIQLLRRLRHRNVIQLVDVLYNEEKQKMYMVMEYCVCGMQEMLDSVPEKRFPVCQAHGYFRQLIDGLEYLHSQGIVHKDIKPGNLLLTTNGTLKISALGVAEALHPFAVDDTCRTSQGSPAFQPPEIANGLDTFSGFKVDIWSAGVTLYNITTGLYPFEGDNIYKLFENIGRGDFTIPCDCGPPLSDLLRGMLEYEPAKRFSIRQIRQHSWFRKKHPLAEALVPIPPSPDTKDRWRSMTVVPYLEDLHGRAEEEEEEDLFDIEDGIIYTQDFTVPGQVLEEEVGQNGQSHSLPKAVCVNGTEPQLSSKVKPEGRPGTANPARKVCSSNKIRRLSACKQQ
The experiment in a line: anti-Flag affinity purification of Flag-LKB1 from HeLa cells; mass fingerprint and immunoblot.

Assay [6] concerns the target T5, endogenous rat LKB1 (Rat-2 cells; rat liver AMPKK1 and AMPKK2 fractions) (rat) (UniProt D4AE59).
T5 sequence (looked up): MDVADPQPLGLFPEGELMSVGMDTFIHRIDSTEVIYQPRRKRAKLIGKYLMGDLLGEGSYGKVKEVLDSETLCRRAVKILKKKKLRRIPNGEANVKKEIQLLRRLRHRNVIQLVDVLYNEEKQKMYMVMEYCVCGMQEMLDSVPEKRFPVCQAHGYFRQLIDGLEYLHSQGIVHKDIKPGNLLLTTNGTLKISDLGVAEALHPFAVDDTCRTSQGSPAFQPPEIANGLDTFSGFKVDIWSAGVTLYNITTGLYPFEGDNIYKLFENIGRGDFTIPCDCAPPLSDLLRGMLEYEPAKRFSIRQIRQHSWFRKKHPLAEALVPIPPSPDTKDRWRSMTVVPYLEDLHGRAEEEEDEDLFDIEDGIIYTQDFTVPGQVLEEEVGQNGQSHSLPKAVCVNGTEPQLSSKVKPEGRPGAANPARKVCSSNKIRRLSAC
The assay is described as follows: co-immunoprecipitation with anti-LKB1 antibody from rat liver AMPKK1 and AMPKK2 fractions.

For assay [7], the target named is T6, endogenous rat MO25α (Rat-2 cells; rat liver) (rat) (UniProt D3ZJ77).
T6 sequence: T2 sequence (looked up) with A300T, P336A
The assay is described as follows: co-immunoprecipitation of endogenous proteins with anti-MO25α antibody, Rat-2 cells, immunoblot.

Assay [8] deals with T5, endogenous rat LKB1 (Rat-2 cells; rat liver AMPKK1 and AMPKK2 fractions) (rat). The experiment in a line: co-immunoprecipitation with anti-LKB1 antibody (figure legend).
Assay [9] has the same target. The experiment in a line: co-immunoprecipitation of endogenous proteins with anti-LKB1 antibody, Rat-2 cells, immunoblot.
Assay [10] deals with T7, N-terminal GST tagged STRADβ (human) (UniProt Q9C0K7).
T7 sequence: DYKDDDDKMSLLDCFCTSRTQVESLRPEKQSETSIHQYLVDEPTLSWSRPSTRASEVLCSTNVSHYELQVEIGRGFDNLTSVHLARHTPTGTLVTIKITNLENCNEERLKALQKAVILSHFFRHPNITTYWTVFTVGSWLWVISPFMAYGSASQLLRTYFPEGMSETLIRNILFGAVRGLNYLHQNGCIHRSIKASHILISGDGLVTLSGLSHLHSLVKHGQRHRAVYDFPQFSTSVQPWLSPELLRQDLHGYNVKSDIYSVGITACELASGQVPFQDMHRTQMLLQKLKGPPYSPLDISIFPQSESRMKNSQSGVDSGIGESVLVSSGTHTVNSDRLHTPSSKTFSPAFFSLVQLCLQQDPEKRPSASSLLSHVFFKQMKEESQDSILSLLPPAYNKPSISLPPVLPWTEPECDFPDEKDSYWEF
The assay is described as follows: GST pull-down from co-transfected 293 cells, anti-Myc blot.

Assay [11] concerns the target T8, N-terminal GST tagged wild type STRADα (human) (UniProt Q7RTN6).
T8 sequence: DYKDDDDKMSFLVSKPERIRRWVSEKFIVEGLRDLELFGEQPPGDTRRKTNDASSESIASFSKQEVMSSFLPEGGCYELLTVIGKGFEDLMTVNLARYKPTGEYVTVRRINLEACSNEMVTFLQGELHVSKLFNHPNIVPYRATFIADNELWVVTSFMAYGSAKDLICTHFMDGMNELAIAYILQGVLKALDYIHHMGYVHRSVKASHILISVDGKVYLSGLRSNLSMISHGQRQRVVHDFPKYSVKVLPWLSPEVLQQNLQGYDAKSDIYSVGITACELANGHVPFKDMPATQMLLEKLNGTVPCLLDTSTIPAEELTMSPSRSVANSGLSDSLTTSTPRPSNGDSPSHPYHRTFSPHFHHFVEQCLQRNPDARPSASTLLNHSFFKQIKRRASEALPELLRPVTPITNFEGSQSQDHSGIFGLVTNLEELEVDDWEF
The assay is described as above.

Changes are numbered by the printed parent chain. Results are given in words; binding and its absence hold for the method and conditions named. For some assays here: In cells and extracts the contact can be indirect. Some results given as binding are weak or reduced against the parent protein; the word gives no strength. For some assays here: Tags and fused reporters may be left off the sequences shown.

From patent publication US20070036793A1, “Methods for use of an lkb1/strad7mo25 complex” (priority 2003, published 2007) come the findings set out here.

In the case of Hsp90 (from UniProt P08238), the binding result in assay [1] is “binds”.

B1: endogenous human STRADα (HeLa, 293 cells) (protein, UniProt Q7RTN6 1-431, looked up)
chain: MSFLVSKPERIRRWVSEKFIVEGLRDLELFGEQPPGDTRRKTNDASSESIASFSKQEVMSSFLPEGGCYELLTVIGKGFEDLMTVNLARYKPTGEYVTVRRINLEACSNEMVTFLQGELHVSKLFNHPNIVPYRATFIADNELWVVTSFMAYGSAKDLICTHFMDGMNELAIAYILQGVLKALDYIHHMGYVHRSVKASHILISVDGKVYLSGLRSNLSMISHGQRQRVVHDFPKYSVKVLPWLSPEVLQQNLQGYDAKSDIYSVGITACELANGHVPFKDMPATQMLLEKLNGTVPCLLDTSTIPAEELTMSPSRSVANSGLSDSLTTSTPRPSNGDSPSHPYHRTFSPHFHHFVEQCLQRNPDARPSASTLLNHSFFKQIKRRASEALPELLRPVTPITNFEGSQSQDHSGIFGLVTNLEELEVDDWEF
Turning to B1, the binding result in [2], in assay [3] and in [4] was “binds” each time.

B2: Cdc37 chaperone protein, endogenous in HeLa cells (protein, human, UniProt Q16543 1-378, looked up)
chain: MVDYSVWDHIEVSDDEDETHPNIDTASLFRWRHQARVERMEQFQKEKEELDRGCRECKRKVAECQRKLKELEVAEGGKAELERLQAEAQQLRKEERSWEQKLEEMRKKEKSMPWNVDTLSKDGFSKSMVNTKPEKTEEDSEEVREQKHKTFVEKYEKQIKHFGMLRRWDDSQKYLSDNVHLVCEETANYLVIWCIDLEVEEKCALMEQVAHQTIVMQFILELAKSLKVDPRACFRQFFTKIKTADRQYMEGFNDELEAFKERVRGRAKLRIEKAMKEYEEEERKKRLGPGGLDPVEVYESLPEELQKCFDVKDVQMLQDAISKMDPTDAKYHMQRCIDSGLWVPNSKASEAKEGEEAGPGDPLLEAVPKTGDEKDVSV
B2: the binding entry in [5] is “binds”.

B3: endogenous rat STRADα (Rat-2 cells; rat liver) (protein, UniProt Q7TNZ6 1-393, looked up)
chain: MSFLANEASSESIASFSKPEIMSSFLPEGGCYELLSVIGKGFEDLMTVNSRYKPTGEYVTVRRINLEACSNEMVTFLQGELHVSKLFSHPNIVPYRATFIADNELWAVTSFMAYGSAKDLIGTHFMDGMSELAIAYILQGVLKALDYIHHMGYVHRSVKASHILISTDGKVYLSGLRSNLSMISHGQRQRAVHDFPKYSIKVLPWLSPEVLQQNLQGYDAKSDIYSVGITACELANGHVPFKDMPATQMLLEKLNGTVPCLLDTSTIPAEELTMSPSRSIANPGLNDSLAAGSLRPANGDSPSHPYHRTFSPHFHNFVEQCLQRNPDARPNASTLLNHSFFKQIKRRASEALPELLRPVTPITSFEGSQSQDHSGILGLVTNLEDLEVDDWEF
In the case of B3, the binding entry in assay [6], in [7], in assay [8] and in assay [9] was “binds” each time.

B4: N-terminal Myc-tagged MO25α (other, human, UniProt Q9Y376 1-341, looked up)
chain: T2 sequence (looked up)
notes: also called Myc-MO25α; myc-MO25α; not shown: only the DNA primer is printed
As for B4, the binding entry in [10] and in [11] was “binds” each time.
